These results are taken from publication PMC4678830.

Where a chain is given by its changes, count along the chain named. The exact form of at least one protein or probe is not confirmed. For some of these results: Weaker means in comparison with the reference protein, sequence or condition of that experiment. Protein sequences can lack the tags named with them. For some of these results: At least one verdict was read from the data and is not stated in words by the source.

Common to all, as to test: EMSA
In general terms: In EMSA bound probe runs differently from free probe, usually more slowly.

Series [1] addresses T1, SNM1A nuclease domain WT (human) (UniProt Q6PJP8).
T1 sequence (looked up): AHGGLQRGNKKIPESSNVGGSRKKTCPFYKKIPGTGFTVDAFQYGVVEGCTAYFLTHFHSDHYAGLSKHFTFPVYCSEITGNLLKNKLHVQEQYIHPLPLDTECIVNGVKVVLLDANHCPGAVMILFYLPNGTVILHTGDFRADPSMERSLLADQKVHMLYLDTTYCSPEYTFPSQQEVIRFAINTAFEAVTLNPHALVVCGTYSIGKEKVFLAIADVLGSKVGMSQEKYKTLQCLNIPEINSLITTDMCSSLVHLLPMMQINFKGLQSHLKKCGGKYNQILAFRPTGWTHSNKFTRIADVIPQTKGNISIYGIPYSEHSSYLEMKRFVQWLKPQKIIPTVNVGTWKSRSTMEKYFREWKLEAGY
The following applies: no added metal stated; 5'-phosphate; EMSA: 1 nM DNA, 20 mM HEPES pH 7.9, 50 mM KCl, 0.5 mM DTT, 0.05% Triton-X, 0.1 mg/ml BSA, 5% glycerol, 5 min at 37 C, then ice; loading dye with 10 mM EDTA; recombinant protein; residues 676-1040; protein details: His tag removed by TEV; label: 3' 32P-dATP added by TdT; single-stranded DNA; letters put together from the description.

Series [2] addresses T2, SNM1A-K904A-K906T (human) (UniProt Q6PJP8).
T2 sequence (looked up): T1 sequence (looked up) with K229A, K231T
As to conditions: no added metal stated; 5'-phosphate; EMSA: 1 nM DNA, 20 mM HEPES pH 7.9, 50 mM KCl, 0.5 mM DTT, 0.05% Triton-X, 0.1 mg/ml BSA, 5% glycerol, 5 min at 37 C, then ice; loading dye with 10 mM EDTA; recombinant protein; residues 676-1040; protein details: His tag removed by TEV; label: 3' 32P-dATP added by TdT; single-stranded DNA; letters put together from the description.

In series [3] the target is T3, SNM1B-S183A S183A,S330F (human) (UniProt Q9H816).
T3 sequence (looked up): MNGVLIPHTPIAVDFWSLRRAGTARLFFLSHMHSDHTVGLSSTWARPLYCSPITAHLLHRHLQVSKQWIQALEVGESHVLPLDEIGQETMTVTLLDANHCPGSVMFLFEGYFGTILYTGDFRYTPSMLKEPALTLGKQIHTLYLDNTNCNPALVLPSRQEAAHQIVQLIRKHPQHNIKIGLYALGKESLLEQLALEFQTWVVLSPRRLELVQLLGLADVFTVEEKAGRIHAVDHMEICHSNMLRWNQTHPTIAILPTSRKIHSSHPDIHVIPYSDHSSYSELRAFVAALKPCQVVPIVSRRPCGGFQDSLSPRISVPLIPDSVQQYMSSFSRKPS
As to conditions: no added metal stated; 5'-phosphate; EMSA: 1 nM DNA, 20 mM HEPES pH 7.9, 50 mM KCl, 0.5 mM DTT, 0.05% Triton-X, 0.1 mg/ml BSA, 5% glycerol, 5 min at 37 C, then ice; loading dye with 10 mM EDTA; recombinant protein; residues 1-335; protein details: His tag removed by TEV; label: 3' 32P-dATP added by TdT; single-stranded DNA; letters put together from the description.

The target of series [4] is T4, SNM1B/Apollo nuclease domain WT S330F (human) (UniProt Q9H816).
T4 sequence (looked up): T3 sequence (looked up) with A183S
As to conditions: no added metal stated; 5'-phosphate; EMSA: 1 nM DNA, 20 mM HEPES pH 7.9, 50 mM KCl, 0.5 mM DTT, 0.05% Triton-X, 0.1 mg/ml BSA, 5% glycerol, 5 min at 37 C, then ice; loading dye with 10 mM EDTA; recombinant protein; residues 1-335; protein details: His tag removed by TEV; label: 3' 32P-dATP added by TdT; single-stranded DNA; letters put together from the description.

For the sequence “TTATAAATAAAATATTAAAACCAATTTGATCATCTATTATATATTTATTAA [51-mer ssDNA (50-mer top strand plus 3' labelled dA)]”, the binding result was “binds” in series [1], “binds more weakly” in series [2], “binds more weakly” in series [3] and “binds” in series [4].
